B1: il2ra_site1_2b5i_sap_9_mot_HHH_b2_04131_000000217_0001_1_16_H_._HHH_b1_08611_0001_0000700044_0000001_0_0001_af2pred_dldesign_0_af2pred (protein)
chain: SSSSSEFRELVKKAEEAYKKATTDEKYDKIDELYNEALRLHREGKKEEAKELLKEAISLTKSSSS
B2: il2ra_site1_2b5i_normal_mot_HHH_b1_02217_af2_000000060_0001_42_56_H_._HHH_b2_07752_af2_0001_0000100007_0000001_0_af2pred_dldesign_0_af2pred (protein)
chain: SSSSDPLWDELDRLASEAFRLKRAGKREEAKEVLEKALKIAEKLKDEKVLEEIKYLLEKISSSSS
B3: il2ra_site2_3nfp_sap_13_mot_HHH_b2_01155_000000159_0001_38_52_H_._HHH_b1_01951_0001_0000700024_0000001_0_0001 (protein)
chain: SSSSDKSEEYLRIAVLIIERALEAGDEESARNMLEVALAAAEDNGDEELEERLEELDRLVNSSSS
B4: il2ra_site2_2erj_sap_16_mot_HHH_b2_05976_000000049_0001_1_19_H_._HHH_b2_00193_0001_0000100006_0000001_0_0001 (protein)
chain: SSSSSEEIERVEELARELLEELERQGDRLAVEVLKAAIEDLEETGNPALAETLEALLRFLSSSSS
B5: il2ra_site1_1z92_sap_25_mot_HHH_b2_03816_af2_000000009_0001_40_54_H_._HHH_b1_06008_0001_0001000050_0000001_0_0001_af2pred_0001_af2pred (protein)
chain: DEEAEEVVEQAEEDPELRKRLEEYLEEVAKLPPRNAKVYLKMLLKKAKEGDPAALELLLSLFEEG
B6: il2ra_site1_3nfp_sap_12_mot_HHH_b2_07963_000000178_0001_1_20_H_._85c313cd81705ef13366c17583bb23ef_0001_0001_0000300011_0000001_0_0001 (protein)
chain: DDEESLKRSVELAAEVAGVPSVEVEEHNGKYHVTIEGDDIQARHVAKLIERAAKAFNIDLEVEVE
B7: il2ra_site2_3nfp_normal_mot_HHH_b2_06150_000000217_0001_39_53_H_._HHH_b2_06562_af2_0001_0000100007_0000001_1 (protein)
chain: SSSSSEEEEEVRELLKQAERAREEGDEEELRRLRARAVEIAYEARDPRLFFLVAEVLFKLASSSS
B8: il2ra_site1_2b5i_sap_13_mot_HHH_b1_03378_af2_000000136_0001_23_39_H_._b8b0fbdce6c3aad50316cb256bd66e7b_0001_1_0001_0000100005_0000001_0_0001_af2pred_dldesign_0_ … (protein)
chain: SSSSSPVSKKIFELIKEAEKLKKEGKEEEAKKLLEEALKLAQENNRPSLARFVQAMLDQLESSSS
B9: il2ra_site2_3nfp_normal_mot_HHH_b2_07083_af2_000000083_0001_42_56_H_._HHH_b2_00762_0001_0000200003_0000001_0_af2pred_0001_af2pred (protein)
chain: SSSSDTEERVEKLLEEARRYREEGDEEEVQRLLAEASEVAFENNNPELLLLIARVLLELLGSSSS
B10: il2ra_site2_3nfp_sap_22_mot_HHH_b2_02437_000000052_0001_42_56_H_._HHH_b1_05931_af2_0001_0000400011_0000001_0_0001 (protein)
chain: SSSSNKAEEYVRIVLAVARLAAKAGDPEAAEKSLRLALSAARQNGNEELEELLEELLKELSSSSS
B11: il2ra_site2_3nfp_normal_mot_HHH_b2_06150_000000217_0001_39_53_H_._ef5a302c84959cb026c21f894a3b1351_0001_0001_0000200021_0000001_0_af2pred_0001_1_af2pred_swapped (protein)
chain: SHESLEALEKVHRRNPEVSAALLALLAEAFRKDPEIRKELLELIRELVERGVPPEEILKLVEEVT
B12: il2ra_site1_1z92_normal_mot_934a834d9b8b770824478def2ff2f329_0001_af2_000000088_0001_15_30_H_._83efa5f199d74a44323d7a465a177682_0001_af2_0001_0000100004_0000001 … (protein)
chain: SLEEEIEQALKEAGVPPSVIRAIKRIIREAEEHGIPPEAIKRDVLKFLEFYNEELAERVEELLKK
B13: il2ra_site2_2erj_normal_mot_HHH_b2_05804_000000098_0001_44_58_H_._HHH_b1_07085_0001_0000200012_0000001_0 (protein)
chain: SSSSSSEEEFWERVARLLAELSHVDEEEAEELLEEARRLAEELGSPFLERYVEFARRAHSSSSSS
B14: il2ra_site2_2erj_normal_mot_HHH_b1_03107_000000098_0001_39_52_H_._HHH_b1_03170_0002_0000300004_0000001_0 (protein)
chain: SSSSSEYEEVARLQAEVLELFKEGDPEEAERLLEEILEKLRELGDETLIRYVEFALRDIRRSSSS
B15: il2ra_site2_2erj_sap_33_mot_8abaa092650c7ec0dcd26c08d75eddca_0001_1_000000067_0001_33_49_H_._HHH_b2_05321_af2_0001_0000100005_0000001_0_0001 (protein)
chain: SSSSSEELHRLFELANLLMHLVARGDREEFEHVLEEAEELAERANSDNAKEFLERLKKELSSSSS
B16: il2ra_site2_2erj_normal_mot_HHH_b1_03107_000000098_0001_39_52_H_._HHH_b2_08306_0001_0000100003_0000001_0 (protein)
chain: SSSSSSFKELWEAVAELLAKAAHIKDEEEVERLLEEAKRIAEELGNEILERYIEYARRDHSSSSS
B17: il2ra_site2_2erj_normal_mot_HHH_b1_02968_000000142_0001_22_39_H_._HHH_b2_03682_af2_0001_0000100008_0000001_0 (protein)
chain: SSSSSDYREEVRELLEEAEEAYENGDLELVYRLAVEAARVASENQDEELQEEIWRVVEELSSSSS
B18: il2ra_site2_3nfp_sap_24_mot_HHH_b2_02437_000000052_0001_42_56_H_._HHH_b2_08341_0001_0000200012_0000001_0_0001_af2pred_0001_1_af2pred_swapped (protein)
chain: SSSSSSSEEEEQIEELLERAEHTEDEAKRLILLAEALLLALEARDPELERRVKELARRLSSSSSS
B19: il2ra_site2_2erj_sap_21_mot_HHH_b2_02303_000000050_0001_43_56_H_._HHH_b1_05172_0001_0000200005_0000001_0_0001_af2pred_0001_1_af2pred_swapped (protein)
chain: SSSSSSDLVKAFVRRLLEEAEKIPDPEERKRWLKLAELAARRWNDEEAEEEVERVQEELGSSSSS

This is one part of the list.

The results in this text go back to paper PMC10163288.

One may read the apparent Kd as a dissociation constant that holds for the conditions of the assay.

This assay has as its target il2ra, P01589. As to the kind of experiment: yeast display titration.
As for B1, the “apparent Kd” value is “inactive: no binding seen”.
For B2, the “apparent Kd” value is “inactive: no binding seen”.
B3: the “apparent Kd” value is “inactive: no binding seen”.
Regarding B4, the “apparent Kd” value was “inactive: no binding seen”.
The figure for B5 is inactive: > 968 nM; for B6 it is “inactive: no binding seen”; for B7 it is “inactive: no binding seen”.
On to B8, for which the apparent Kd is inactive: > 664 nM.
Turning to B9, the “apparent Kd” value was “inactive: no binding seen”.
Consider B10, for which the “apparent Kd” value is “inactive: no binding seen”.
For the molecule B11, the “apparent Kd” value was “inactive: no binding seen”.
As for B12, the “apparent Kd” value was “inactive: no binding seen”.
Consider B13, for which the “apparent Kd” value is “inactive: no binding seen”.
As to B14, the “apparent Kd” value is “inactive: no binding seen”.
Take B15: the “apparent Kd” value is “inactive: no binding seen”.
In the case of B16, the “apparent Kd” value was “inactive: no binding seen”.
On to B17, for which the “apparent Kd” value is “inactive: no binding seen”.
For the molecule B18, the “apparent Kd” value is “inactive: no binding seen”.
Consider B19, for which the “apparent Kd” value is “inactive: no binding seen”.
